This note sets out measurements from article doi:10.1101/642959.

Protein sequences, listed by entry. Tags and fused reporters are not part of them.
UniProt Q9UQE7: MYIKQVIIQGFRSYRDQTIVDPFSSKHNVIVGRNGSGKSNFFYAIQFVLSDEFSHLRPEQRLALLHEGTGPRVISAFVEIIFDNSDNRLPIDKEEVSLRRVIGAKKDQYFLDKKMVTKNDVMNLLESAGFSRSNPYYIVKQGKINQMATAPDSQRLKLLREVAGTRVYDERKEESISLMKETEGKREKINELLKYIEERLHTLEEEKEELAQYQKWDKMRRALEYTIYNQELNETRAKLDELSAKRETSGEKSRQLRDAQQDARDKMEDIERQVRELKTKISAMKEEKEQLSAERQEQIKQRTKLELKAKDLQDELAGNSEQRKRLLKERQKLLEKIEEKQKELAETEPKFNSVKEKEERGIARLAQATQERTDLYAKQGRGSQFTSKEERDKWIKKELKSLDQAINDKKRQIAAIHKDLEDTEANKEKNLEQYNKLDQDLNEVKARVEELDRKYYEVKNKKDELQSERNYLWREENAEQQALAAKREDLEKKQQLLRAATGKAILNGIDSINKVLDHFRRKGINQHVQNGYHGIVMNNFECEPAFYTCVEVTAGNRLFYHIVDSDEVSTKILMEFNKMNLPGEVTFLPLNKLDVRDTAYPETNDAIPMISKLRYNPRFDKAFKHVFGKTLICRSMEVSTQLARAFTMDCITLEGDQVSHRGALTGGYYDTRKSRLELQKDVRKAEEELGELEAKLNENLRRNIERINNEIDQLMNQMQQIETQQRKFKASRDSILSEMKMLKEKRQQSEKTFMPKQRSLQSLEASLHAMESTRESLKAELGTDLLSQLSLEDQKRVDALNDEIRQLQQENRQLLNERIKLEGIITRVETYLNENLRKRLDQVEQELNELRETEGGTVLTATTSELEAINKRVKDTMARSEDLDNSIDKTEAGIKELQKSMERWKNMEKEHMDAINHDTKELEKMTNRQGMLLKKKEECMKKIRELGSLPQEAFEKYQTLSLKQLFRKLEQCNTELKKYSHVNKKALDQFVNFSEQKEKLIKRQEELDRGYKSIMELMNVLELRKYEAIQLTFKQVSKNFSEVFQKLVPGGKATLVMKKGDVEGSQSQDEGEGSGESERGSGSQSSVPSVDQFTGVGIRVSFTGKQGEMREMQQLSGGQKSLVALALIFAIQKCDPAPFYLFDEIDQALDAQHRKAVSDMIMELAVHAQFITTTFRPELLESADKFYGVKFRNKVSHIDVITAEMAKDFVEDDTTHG

In this assay the target is SMC3 (human (endogenous in HCT116)) (UniProt Q9UQE7). In words: co-IP.

No constants are given. Whether binding was seen depends on the method and setting. Binding seen in cells or lysates may run through a third protein. Some entries that bind do so weakly or less than the wild type.

B1: SA1-mAID-mClover (protein, UniProt Q8WVM7 1-1258)
chain: MITSELPVLQDSTNETTAHSDAGSELEETEVKGKRKRGRPGRPPSTNKKPRKSPGEKSRIEAGIRGAGRGRANGHPQQNGEGEPVTLFEVVKLGKSAMQSVVDDWIESYKQDRDIALLDLINFFIQCSGCRGTVRIEMFRNMQNAEIIRKMTEEFDEDSGDYPLTMPGPQWKKFRSNFCEFIGVLIRQCQYSIIYDEYMMDTVISLLTGLSDSQVRAFRHTSTLAAMKLMTALVNVALNLSIHQDNTQRQYEAERNKMIGKRANERLELLLQKRKELQENQDEIENMMNSIFKGIFVHRYRDAIAEIRAICIEEIGVWMKMYSDAFLNDSYLKYVGWTLHDRQGEVRLKCLKALQSLYTNRELFPKLELFTNRFKDRIVSMTLDKEYDVAVEAIRLVTLILHGSEEALSNEDCENVYHLVYSAHRPVAVAAGEFLHKKLFSRHDPQAEEALAKRRGRNSPNGNLIRMLVLFFLESELHEHAAYLVDSLWESSQELLKDWECMTELLLEEPVQGEEAMSDRQESALIELMVCTIRQAAEAHPPVGRGTGKRVLTAKERKTQIDDRNKLTEHFIITLPMLLSKYSADAEKVANLLQIPQYFDLEIYSTGRMEKHLDALLKQIKFVVEKHVESDVLEACSKTYSILCSEEYTIQNRVDIARSQLIDEFVDRFNHSVEDLLQEGEEADDDDIYNVLSTLKRLTSFHNAHDLTKWDLFGNCYRLLKTGIEHGAMPEQIVVQALQCSHYSILWQLVKITDGSPSKEDLLVLRKTVKSFLAVCQQCLSNVNTPVKEQAFMLLCDLLMIFSHQLMTGGREGLQPLVFNPDTGLQSELLSFVMDHVFIDQDEENQSMEGDEEDEANKIEALHKRRNLLAAFSKLIIYDIVDMHAAADIFKHYMKYYNDYGDIIKETLSKTRQIDKIQCAKTLILSLQQLFNELVQEQGPNLDRTSAHVSGIKELARRFALTFGLDQIKTREAVATLHKDGIEFAFKYQNQKGQEYPPPNLAFLEVLSEFSSKLLRQDKKTVHSYLEKFLTEQMMERREDVWLPLISYRNSLVTGGEDDRMSVNSGSSSSKTSSVRNKKGRPPLHKKRVEDESLDNTWLNRTDTMIQTPGPLPAPQLTSTVLRENSRPMGDQIQEPESEHGSEPDFLHNPQMQISWLGQPKLEDLNRKDRTGMNYMKVRTGVRHAVRGLMEEDAEPIFEDVMMSSRSQLEDMNEEFEDTMVIDLPPSRNRRERAELRPDFFDSAAIIEDDSGFGMPMF
Take B1: the binding result is “binds”.

B2: SA2-AID-mClover (protein, UniProt Q8N3U4 1-1231)
chain: MIAAPEIPTDFNLLQESETHFSSDTDFEDIEGKNQKQGKGKTCKKGKKGPAEKGKGGNGGGKPPSGPNRMNGHHQQNGVENMMLFEVVKMGKSAMQSVVDDWIESYKHDRDIALLDLINFFIQCSGCKGVVTAEMFRHMQNSEIIRKMTEEFDEDSGDYPLTMAGPQWKKFKSSFCEFIGVLVRQCQYSIIYDEYMMDTVISLLTGLSDSQVRAFRHTSTLAAMKLMTALVNVALNLSINMDNTQRQYEAERNKMIGKRANERLELLLQKRKELQENQDEIENMMNAIFKGVFVHRYRDAIAEIRAICIEEIGIWMKMYSDAFLNDSYLKYVGWTMHDKQGEVRLKCLTALQGLYYNKELNSKLELFTSRFKDRIVSMTLDKEYDVAVQAIKLLTLVLQSSEEVLTAEDCENVYHLVYSAHRPVAVAAGEFLYKKLFSRRDPEEDGMMKRRGRQGPNANLVKTLVFFFLESELHEHAAYLVDSMWDCATELLKDWECMNSLLLEEPLSGEEALTDRQESALIEIMLCTIRQAAECHPPVGRGTGKRVLTAKEKKTQLDDRTKITELFAVALPQLLAKYSVDAEKVTNLLQLPQYFDLEIYTTGRLEKHLDALLRQIRNIVEKHTDTDVLEACSKTYHALCNEEFTIFNRVDISRSQLIDELADKFNRLLEDFLQEGEEPDEDDAYQVLSTLKRITAFHNAHDLSKWDLFACNYKLLKTGIENGDMPEQIVIHALQCTHYVILWQLAKITESSSTKEDLLRLKKQMRVFCQICQHYLTNVNTTVKEQAFTILCDILMIFSHQIMSGGRDMLEPLVYTPDSSLQSELLSFILDHVFIEQDDDNNSADGQQEDEASKIEALHKRRNLLAAFCKLIVYTVVEMNTAADIFKQYMKYYNDYGDIIKETMSKTRQIDKIQCAKTLILSLQQLFNEMIQENGYNFDRSSSTFSGIKELARRFALTFGLDQLKTREAIAMLHKDGIEFAFKEPNPQGESHPPLNLAFLDILSEFSSKLLRQDKRTVYVYLEKFMTFQMSLRREDVWLPLMSYRNSLLAGGDDDTMSVISGISSRGSTVRSKKSKPSTGKRKVVEGMQLSLTEESSSSDSMWLSREQTLHTPVMMQTPQLTSTIMREPKRLRPEDSFMSVYPMQTEHHQTPLDYNRRGTSLMEDDEEPIVEDVMMSSEGRIEDLNEGMDFDTMDIDLPPSKNRRERTELKPDFFDPASIMDESVLGVSMF
For the molecule B2, the binding result is given as “binds”.
